The experiment can be described thus: qHTS Assay for Modulators of Lamin A Splicing. The settings on record: HeLa LMNA splicing GFP/RFP minigene ratio, 48 h. A digest of the protocol:
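S3 HeLa stable clones carrying a lamin A-EGFP splicing minigene plus DsRed2 were seeded at 600 cells/well in Opti-MEM with 2% FBS, pin-dosed and incubated 48 h at 37°C. Acumen cytometry (488 nm) gave the GFP/RFP total-intensity ratio.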
For orientation: Quantitative high-throughput screening tests each substance at several concentrations.

[1] abbreviates: measured here: GFP splicing reporter channel.
The mark [2] stands for this setting: measured here: RFP viability control channel.

Where “and” joins values, the source holds several entries; their conditions need not be identical. Equal values may be shown once. This is one part of the list. Shown are side measurements of this screen, not its main read-out; they come without a call. The list favours compounds with an active or inconclusive main result. The note in brackets gives the kind of curve behind each potency; many fits are weak.

Consider 51 molecules from PubChem BioAssay AID1487 (National Center for Advancing Translational Sciences (NCATS), 2009).

In general, AC50 refers to the concentration at which the activity in the assay is half-maximal. With `CCOC(=O)C1=C(c2ccccc2)N=c2s/c(=C\c3cccc(O)c3)c(=O)n2C1c1cccs1` (centres undefined), the AC50 under setting [1] is 35.5 µM [falling, single point] and the concentration at half-maximal activity (AC50) under setting [2] is 8.91 µM [falling, partial curve].
With `Cc1nn(-c2ccccc2)c(C)c1/C=N/Nc1nc2ccccc2[nH]1`, the AC50 under setting [2] is 14.1 µM [rising, partial curve].
Consider `COCCCNC(=S)Nc1ccc(C)cc1[N+](=O)[O-]`, for which the concentration at half-maximal activity (AC50) was 1.12 µM [rising, full curve, poor fit] under setting [1] and 0.0141 µM [rising, full curve, poor fit] under setting [2].
As to `Cc1ccc(Cc2nc3ccccc3nc2SCC(=O)Nc2cccc(C(F)(F)F)c2)cc1`, the AC50 was 35.5 µM [falling, single point] under setting [1] and 35.5 µM [falling, single point] under setting [2].
For `CC(C)CN1C(=O)c2ccc(C(=O)Nc3ccncc3)cc2C1=O`, the AC50 under setting [1] was 14.1 µM [rising, partial curve, poor fit] and the AC50 under setting [2] was 15.8 µM [rising, partial curve].
For `COc1ccc(Cl)cc1Nc1nc(-c2sc(NC(=O)c3ccccc3)nc2C)cs1`, the AC50 under setting [2] is 3.16 µM [falling, full curve].
Turning to `COc1ccccc1C(=O)N1CCN(c2nc3cc(C)c(C)cc3cc2C#N)CC1`, the concentration at half-maximal activity (AC50) under setting [1] was 14.1 µM [rising, single point] and the AC50 under setting [2] is 20 µM [rising, single point].
In the case of `COc1ccccc1N1CCN(/N=C/c2cccc(OC)c2OC)CC1`, the concentration at half-maximal activity (AC50) under setting [1] was 0.0316 µM [falling, full curve, poor fit].
Turning to `Cc1cccc(Nc2nc(N)c([N+](=O)[O-])c(N3CC(C)CC(C)C3)n2)c1` (centres undefined), the AC50 under setting [1] was 35.5 µM [falling, single point].
Regarding `O=C(Nc1ccc(N2CCCCC2)c(Cl)c1)c1ncn[nH]1`, under setting [2], the half-maximal activity concentration (AC50) was 1.41 µM [falling, partial curve].
Take `CCOc1ccc(S(=O)(=O)N(CC(=O)N/N=C/c2cccs2)c2ccc(C)cc2)cc1`: under setting [2], the half-maximal activity concentration (AC50) was 0.282 µM [rising, full curve, poor fit].
Consider `CC(C)C(c1nnnn1Cc1ccc(F)cc1)N1CCN(C2CCCCC2)CC1` (centres undefined), for which, under setting [2], the AC50 is 0.0355 µM [falling, full curve, poor fit].
As for `CN1CCN(Cc2c(C#N)c3ccccc3n2C)CC1`, the AC50 by setting is: under setting [1], 5.01 µM [rising, partial curve]; under setting [2], 0.126 µM [rising, full curve, poor fit].
For the molecule `CC(C)(C)c1ccc(S(=O)(=O)NCc2nc3cccnc3n2Cc2ccccc2Cl)cc1`, under setting [1], the AC50 was 2.82 µM [falling, partial curve, poor fit].
As to `COc1ccccc1Nc1ccc(S(=O)(=O)N2CCCCC2)cc1[N+](=O)[O-]`, the AC50 under setting [2] is 12.6 µM [rising, partial curve].
As for `O=C(CC1NCCc2ccccc21)Nc1ccccc1Cl` (centres undefined), the concentration at half-maximal activity (AC50) under setting [1] is 35.5 µM [falling, single point].
On to `O=C(N/N=C/c1c[nH]c2ccc(Br)cc12)c1ccn(Cc2ccc(Cl)cc2)n1`, for which the AC50 by setting is: under setting [1], 12.6 µM [falling, single point]; under setting [2], 15.8 µM [falling, single point].
For the molecule `COC(=O)C1=CO[C@@H](C)[C@H]2CN3CCc4c([nH]c5ccccc45)[C@@H]3C[C@H]12`, the AC50 is 3.16 µM [falling, single point] and 50.1 nM [falling, full curve] under setting [1]; 7.08 nM [rising, full curve, poor fit] and 70.8 nM [falling, full curve, poor fit] under setting [2].
In the case of `CCOc1ccc(CNC(=O)Cn2nc(C)c3nn(-c4ccc(Cl)cc4)c(C)c3c2=O)cc1OC`, the AC50 under setting [2] is 0.0224 µM [falling, full curve, poor fit].
`c1ccc2c(CC3=NCCN3)cccc2c1`: the concentration at half-maximal activity (AC50) by setting is: under setting [1], 1.41 µM [falling, single point]; under setting [2], 2 µM [falling, single point].
With `N=c1c2c(-c3ccccc3)c(-c3ccccc3)n(Cc3ccco3)c2ncn1Cc1ccccc1`, the half-maximal activity concentration (AC50) was 17.8 µM [falling, partial curve] under setting [1] and 20 µM [falling, partial curve] under setting [2].
Regarding `CC(=O)OCC(=O)[C@@]12OC(C)(C)O[C@@H]1C[C@H]1[C@@H]3C[C@H](F)C4=CC(=O)C=C[C@]4(C)[C@@]3(F)[C@@H](O)C[C@@]12C`, the AC50 under setting [1] is 0.631 µM [rising, full curve, poor fit].
Turning to `CCN(CC)S(=O)(=O)c1cccc(C(=O)N/N=C(\C)c2ccc(O)cc2O)c1`, under setting [2], the AC50 was 11.2 µM [rising, single point].
The same measure, in the same setting: under `CN1C/C(=C/c2cccnc2)C(=O)/C(=C/c2cccnc2)C1` stands 35.5 µM [rising, single point].
Still for that read-out and setting: to `CCC(=O)N1CCN(c2cc(N3CCN(C)CC3)c(F)cc2[N+](=O)[O-])CC1` belongs 11.2 µM [rising, partial curve].
On to `C[C@@H](NCCc1ccc(O)cc1)[C@@H](O)c1ccc(O)cc1`, for which the AC50 under setting [1] was 0.01 µM [rising, full curve, poor fit].
Turning to `COc1cc(NC(=O)c2cccc3c2C(=O)N(Cc2cccnc2)C3)cc(OC)c1OC`, under setting [2], the AC50 is 7.94 µM [rising, partial curve, poor fit].
Take `CCCC[C@H](CC)CN=C(N)NC(N)=NCCCCCCN=C(N)NC(N)=NC[C@@H](CC)CCCC`: the AC50 is, setting by setting: under setting [1], 8.91 µM [falling, partial curve]; under setting [2], 10 µM [falling, partial curve].
In the case of `Cc1cccc(C(=O)N2CCC(Cc3ccccc3)CC2)c1[N+](=O)[O-]`, the AC50 under setting [2] is 22.4 µM [rising, partial curve].
Regarding `Cn1c(N)c(C(=O)COC(=O)c2cccnc2Cl)c(=O)n(C)c1=O`, the AC50 under setting [1] is 0.158 µM [rising, full curve, poor fit].
On the same count and under the same terms, to `CC(=O)C(=Nc1ccc(Cl)cc1Cl)NNc1cccc(Cl)c1` belongs 14.1 µM [rising, partial curve, poor fit].
As to `O=C(N/N=C/c1ccc2c(c1)OCO2)c1ccc2c(c1)OCCO2`, the concentration at half-maximal activity (AC50) under setting [1] is 17.8 µM [rising, single point] and the AC50 under setting [2] is 17.8 µM [rising, single point].
`O=C(Nc1nc(N2C(=O)c3ccccc3C2=O)n(-c2ccccc2)n1)c1ccc(F)cc1`: the AC50 under setting [2] is 10 µM [falling, partial curve].
`COc1ccc(S(=O)(=O)N2CCC(C(=O)c3ccc4c(c3)OCCO4)CC2)cc1`: the half-maximal activity concentration (AC50) under setting [2] was 10 µM [rising, partial curve, poor fit].
As for `O=C(COc1ccccc1F)Nc1ccccc1OCc1cc(=O)n2ccccc2n1`, the AC50 under setting [1] was 7.94 µM [falling, partial curve, poor fit].
As to `Cc1ccc(C(=O)N/C(=C/c2cccnc2)C(=O)O)cc1`, the half-maximal activity concentration (AC50) was 0.00355 µM [falling, full curve, poor fit] under setting [1] and 31.6 µM [falling, partial curve, poor fit] under setting [2].
With `O=C(CCNC(=O)c1ccccc1Cl)Nc1ccc(Br)c(C(F)(F)F)c1`, the half-maximal activity concentration (AC50) is, setting by setting: under setting [1], 28.2 µM [rising, single point]; under setting [2], 22.4 µM [rising, single point].
As for `COc1ccc(-n2c(-c3ccc(Cl)cc3)c[n+]3c2CCc2ccccc2-3)cc1`, under setting [2], the half-maximal activity concentration (AC50) is 28.2 µM [rising, single point].
With `Nc1ncnc2nc(Sc3ccc(Cl)cc3)[nH]c12`, under setting [2], the AC50 is 35.5 µM [rising, single point].
Turning to `COc1ccc(-n2c(=O)c(-c3cccs3)nc3cnc(Nc4ccccc4)nc32)cc1`, the half-maximal activity concentration (AC50) is 20 µM [falling, partial curve] under setting [1] and 12.6 µM [falling, partial curve] under setting [2].
For `O=C(/C=C/c1ccc(N2CCCCC2)c([N+](=O)[O-])c1)c1ccc(O)cc1`, the AC50 by setting is: under setting [1], 12.6 µM [falling, partial curve]; under setting [2], 10 µM [falling, partial curve].
As to `Cc1cc(C2=NNC(=NC3CC3)SC2)c(C)n1Cc1ccco1`, the concentration at half-maximal activity (AC50) was 2.51 µM [falling, partial curve] under setting [1] and 4.47 µM [falling, single point] under setting [2].
On to `Ic1ccc(N2CCN(Cc3c[nH]c4ncccc34)CC2)cc1`, for which the AC50 is 0.00501 µM [falling, full curve, poor fit] under setting [1] and 0.00447 µM [falling, full curve, poor fit] under setting [2].
As to `CCc1cccc(CC)c1NC(=O)COC(=O)/C(C#N)=C/c1ccc(OC)cc1`, the half-maximal activity concentration (AC50) under setting [1] was 25.1 µM [rising, single point].
For `Cc1ccc(C(=O)c2c(C)oc3c2C(=O)C(=O)c2ccccc2-3)cc1`, the AC50 runs as follows: under setting [1], 15.8 µM [falling, single point]; under setting [2], 20 µM [falling, partial curve].
On to `Cc1cccc(-n2cc(-c3ccccc3)c3c(NC(C)C)ncnc32)c1`, for which the AC50 was 35.5 µM [falling, single point] under setting [1] and 35.5 µM [falling, single point] under setting [2].
Take `O=C1CN(c2nc(-c3cccs3)nc3sc4c(c23)CCCC4)CCN1`: the AC50 is, setting by setting: under setting [1], 6.31 µM [rising, partial curve]; under setting [2], 0.708 µM [rising, partial curve, poor fit].
On to `CCOC(=O)N1CCN(C(=O)CCc2ccc(S(=O)(=O)NCCc3ccccc3)cc2)CC1`, for which the AC50 reads like this: under setting [1], 14.1 µM [rising, single point]; under setting [2], 31.6 µM [rising, single point].
Regarding `COc1ccc(C(OC(=O)c2ccco2)C(=O)NC2CCCCC2)cc1OC` (centres undefined), the AC50 under setting [2] is 31.6 µM [rising, single point].
As for `Cc1ccsc1/C=N/NC(=O)CC(=O)NCC(C)C`, the half-maximal activity concentration (AC50) under setting [2] was 0.0316 µM [falling, full curve, poor fit].
In the case of `COc1ccc(/C=N\NS(=O)(=O)c2ccc(C)cc2)cc1COc1ccccc1[N+](=O)[O-]`, the AC50 by setting is: under setting [1], 17.8 µM [rising, single point]; under setting [2], 35.5 µM [rising, single point].
